Some entries share one result that the patent states for a list of compounds. At least one compound was matched to its structure with a doubt left.
How the values were obtained:
CMV promoter = CMV promoter driven β-galactosidase expression in MM96L cells; type: cell-based, human; details: 100 ng/mL; 20 hr
mouse melanoma B16 tumor = assay: Topical treatment of s.c. B16 melanoma on nude mice; type: in vivo; details: tinctures, 2-5 μL applied daily for 3 days to s.c. B16 tumor on nude mice

Compound	induction of CMV promoter activity (CMV promoter)	sites cured (efficacy) (mouse melanoma B16 tumor)
CCCCCCCCCCCCCC(=O)O[C@@H]1[C@@H](C)[C@@]2(O)[C@@H](C=C(CO)C[C@]3(O)C(=O)C(C)=C[C@@H]23)C2C(C)(C)[C@@]21OC(C)=O (single isomer, unassigned) [TPA]	> 3 fold	–
C/C=C(/C)C(=O)O[C@H]1C(C)=C[C@]23C(=O)[C@@H](C=C(CO)[C@@H](O)[C@]12O)[C@H]1[C@@H](C[C@H]3C)C1(C)C [PEP005, 20-hydroxy-ingenol-3-angelate]	–	≥ 67%
C/C=C(/C)C(=O)O[C@H]1C(C)=C[C@]23C(=O)[C@@H](C=C(COC(C)=O)[C@@H](O)[C@]12O)[C@H]1[C@@H](C[C@H]3C)C1(C)C [PEP008, 20-O-acetyl-ingenol-3-angelate]	–	≥ 67%

Source: patent US20030195168A1, “Therapeutic agents - III” (priority 2000, published 2003)
